{"source": "the supplement of paper PMC8728848", "binders": {"B1": {"name": "DCIR1 (Mus musculus), Q9QZ15 (protein)", "chain": "MASEITYAEVKFKNESNSLHTYSESPAAPREKPIRDLRKPGSPSLLLTSLMLLLLLLAITFLVAFIIYFQKYSQLLEEKKAAKNIMHNELNCTKSVSPMEDKVWSCCPKDWRLFGSHCYLVPTVSSSASWNKSEENCSRMGAHLVVIQSQEEQDFITGILDTHAAYFIGLWDTGHRQWQWVDQTPYEESITFWHNGEPSSGNEKCATIIYRWKTGWGWNDISCSLKQKSVCQMKKINL"}}, "assay_in_all_cases": "glycan array binding signal (z-score within array); higher = stronger binding", "settings_in_all_cases": "glycan notation: IUPAC condensed, linker removed", "key": {"[1]": {"target": "Neu5Ac(a2-6)Gal(b1-4)GlcNAc(b1-3)Gal(b1-4)GlcNAc(b1-3)Gal(b1-4)GlcNAc", "summary_of_the_method": "(§1)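 Glycan array data were curated from 3228 arrays in the Consortium for Functional Glycomics database and kept only where the protein sequence was available. Glycan names were converted to IUPAC-condensed notation, and columns mapping to the same glycan were averaged. The binding signal is a within-array Z-score, averaged across arrays of the same protein sequence at different concentrations or buffers and across linkers. Negative Z-scores can be read as non-binding.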"}, "[2]": {"target": "Neu5Ac(a2-6)Gal(b1-4)GlcNAc(b1-3)Gal(b1-4)GlcNAc(b1-3)Gal(b1-4)GlcNAc(b1-2)Man(a1-3)[Neu5Ac(a2-6)Gal(b1-4)GlcNAc(b1-3)Gal(b1-4)GlcNAc(b1-3)Gal(b1-4)GlcNAc(b1-2)Man(a1-6)]GalNAc", "summary_of_the_method": "as §1"}, "[3]": {"target": "Neu5Ac(a2-6)Gal(b1-4)GlcNAc(b1-3)Gal(b1-4)GlcNAc(b1-3)GalNAc", "summary_of_the_method": "as §1"}, "[4]": {"target": "Neu5Ac(a2-6)Gal(b1-4)GlcNAc(b1-3)Gal(b1-4)GlcNAc(b1-3)[Neu5Ac(a2-6)Gal(b1-4)GlcNAc(b1-3)Gal(b1-4)GlcNAc(b1-6)]GalNAc", "summary_of_the_method": "as §1"}, "[5]": {"target": "Neu5Ac(a2-6)Gal(b1-4)GlcNAc(b1-3)Gal(b1-4)GlcNAc(b1-6)[Gal(b1-3)]GalNAc", "summary_of_the_method": "as §1"}, "[6]": {"target": "Neu5Ac(a2-6)Gal(b1-4)GlcNAc(b1-3)Gal(b1-4)[Fuc(a1-3)]GlcNAc(b1-3)Gal(b1-4)[Fuc(a1-3)]GlcNAc", "summary_of_the_method": "as §1"}, "[7]": {"target": "Neu5Ac(a2-6)Gal(b1-4)GlcNAc(b1-3)GalNAc", "summary_of_the_method": "as §1"}, "[8]": {"target": "Neu5Ac(a2-6)Gal(b1-4)GlcNAc(b1-3)[Neu5Ac(a2-6)Gal(b1-4)GlcNAc(b1-6)]GalNAc", "summary_of_the_method": "as §1"}, "[9]": {"target": "Neu5Ac(a2-6)Gal(b1-4)GlcNAc(b1-6)GalNAc", "summary_of_the_method": "as §1"}, "[10]": {"target": "Neu5Ac(a2-6)Gal(b1-4)GlcNAc(b1-6)[Gal(b1-3)GlcNAc(b1-3)]Gal(b1-4)Glc", "summary_of_the_method": "as §1"}, "[11]": {"target": "Neu5Ac(a2-6)Gal(b1-4)GlcNAc(b1-6)[Gal(b1-3)]GalNAc", "summary_of_the_method": "as §1"}, "[12]": {"target": "Neu5Ac(a2-6)Gal(b1-4)GlcNAc6S", "summary_of_the_method": "as §1"}, "Neu5Ac(a2-6)GalNAc": {"target": "Neu5Ac(a2-6)GalNAc", "summary_of_the_method": "as §1"}, "[13]": {"target": "Neu5Ac(a2-6)GalNAc(b1-4)GlcNAc", "summary_of_the_method": "as §1"}, "[14]": {"target": "Neu5Ac(a2-6)GalNAc(b1-4)GlcNAc6S", "summary_of_the_method": "as §1"}, "[15]": {"target": "Neu5Ac(a2-6)GlcNAc(b1-4)GlcNAc", "summary_of_the_method": "as §1"}, "[16]": {"target": "Neu5Ac(a2-6)GlcNAc(b1-4)GlcNAc(b1-4)GlcNAc", "summary_of_the_method": "as §1"}, "Neu5Ac(a2-8)Neu5Ac": {"target": "Neu5Ac(a2-8)Neu5Ac", "summary_of_the_method": "as §1"}, "[17]": {"target": "Neu5Ac(a2-8)Neu5Ac(a2-3)Gal(b1-3)GalNAc(b1-4)[Neu5Ac(a2-3)]Gal(b1-4)Glc", "summary_of_the_method": "as §1"}, "[18]": {"target": "Neu5Ac(a2-8)Neu5Ac(a2-3)Gal(b1-3)GalNAc(b1-4)[Neu5Ac(a2-8)Neu5Ac(a2-3)]Gal(b1-4)Glc", "summary_of_the_method": "as §1"}, "[19]": {"target": "Neu5Ac(a2-8)Neu5Ac(a2-3)Gal(b1-4)Glc", "summary_of_the_method": "as §1"}, "[20]": {"target": "Neu5Ac(a2-8)Neu5Ac(a2-3)Gal(b1-4)GlcNAc", "summary_of_the_method": "as §1"}, "[21]": {"target": "Neu5Ac(a2-8)Neu5Ac(a2-3)[Gal(b1-3)GalNAc(b1-4)]Gal(b1-4)Glc", "summary_of_the_method": "as §1"}, "[22]": {"target": "Neu5Ac(a2-8)Neu5Ac(a2-3)[GalNAc(b1-4)]Gal(b1-4)Glc", "summary_of_the_method": "as §1"}, "[23]": {"target": "Neu5Ac(a2-8)Neu5Ac(a2-8)Neu5Ac", "summary_of_the_method": "as §1"}, "[24]": {"target": "Neu5Ac(a2-8)Neu5Ac(a2-8)Neu5Ac(a2-3)Gal(b1-4)Glc", "summary_of_the_method": "as §1"}, "[25]": {"target": "Neu5Ac(a2-8)Neu5Ac(a2-8)Neu5Ac(a2-3)[Gal(b1-3)GalNAc(b1-4)]Gal(b1-4)Glc", "summary_of_the_method": "as §1"}, "[26]": {"target": "Neu5Ac(a2-8)Neu5Ac(a2-8)Neu5Ac(a2-3)[GalNAc(b1-4)]Gal(b1-4)Glc", "summary_of_the_method": "as §1"}, "[27]": {"target": "Neu5Ac(a2-8)Neu5Ac(a2-8)Neu5Ac(a2-8)Neu5Ac(a2-3)[GalNAc(b1-4)]Gal(b1-4)Glc", "summary_of_the_method": "as §1"}, "[28]": {"target": "Neu5Ac(a2-8)Neu5Gc(a2-3)Gal(b1-4)GlcNAc", "summary_of_the_method": "as §1"}, "[29]": {"target": "Neu5Ac(b2-6)Gal(b1-4)GlcNAc", "summary_of_the_method": "as §1"}, "Neu5Ac(b2-6)GalNAc": {"target": "Neu5Ac(b2-6)GalNAc", "summary_of_the_method": "as §1"}, "[30]": {"target": "Neu5Ac9Ac(a2-3)Gal(b1-3)GlcNAc", "summary_of_the_method": "as §1"}, "[31]": {"target": "Neu5Ac9Ac(a2-3)Gal(b1-4)GlcNAc", "summary_of_the_method": "as §1"}, "[32]": {"target": "Neu5Ac9Ac(a2-6)Gal(b1-4)GlcNAc", "summary_of_the_method": "as §1"}, "[33]": {"target": "Neu5Gc(a2-3)Gal(b1-3)GlcNAc", "summary_of_the_method": "as §1"}, "[34]": {"target": "Neu5Gc(a2-3)Gal(b1-3)[Fuc(a1-4)]GlcNAc", "summary_of_the_method": "as §1"}, "Neu5Gc(a2-3)Gal(b1-4)Glc": {"target": "Neu5Gc(a2-3)Gal(b1-4)Glc", "summary_of_the_method": "as §1"}, "[35]": {"target": "Neu5Gc(a2-3)Gal(b1-4)GlcNAc", "summary_of_the_method": "as §1"}, "[36]": {"target": "Neu5Gc(a2-3)Gal(b1-4)GlcNAc(b1-3)Gal(b1-4)GlcNAc(b1-2)Man(a1-3)[Neu5Gc(a2-3)Gal(b1-4)GlcNAc(b1-3)Gal(b1-4)GlcNAc(b1-2)Man(a1-6)]Man(b1-4)GlcNAc(b1-4)GlcNAc", "summary_of_the_method": "as §1"}, "[37]": {"target": "Neu5Gc(a2-3)Gal(b1-4)[Fuc(a1-3)]GlcNAc", "summary_of_the_method": "as §1"}, "[38]": {"target": "Neu5Gc(a2-6)Gal(b1-4)GlcNAc", "summary_of_the_method": "as §1"}, "Neu5Gc(a2-6)GalNAc": {"target": "Neu5Gc(a2-6)GalNAc", "summary_of_the_method": "as §1"}, "[39]": {"target": "Neu5Gc(a2-8)Neu5Ac(a2-3)Gal(b1-4)GlcNAc", "summary_of_the_method": "as §1"}, "[40]": {"target": "Neu5Gc(a2-8)Neu5Gc(a2-3)Gal(b1-4)GlcNAc", "summary_of_the_method": "as §1"}}, "note": "The other results are listed elsewhere or left out.", "data": [{"binder": "B1", "values": [{"measurement": "glycan array binding signal (z-score)", "setting": "[1]", "result": 0.176}, {"measurement": "glycan array binding signal (z-score)", "setting": "[2]", "result": 0.103}, {"measurement": "glycan array binding signal (z-score)", "setting": "[3]", "result": -0.959}, {"measurement": "glycan array binding signal (z-score)", "setting": "[4]", "result": 0.286}, {"measurement": "glycan array binding signal (z-score)", "setting": "[5]", "result": -0.3}, {"measurement": "glycan array binding signal (z-score)", "setting": "[6]", "result": -0.61}, {"measurement": "glycan array binding signal (z-score)", "setting": "[7]", "result": -0.193}, {"measurement": "glycan array binding signal (z-score)", "setting": "[8]", "result": -0.929}, {"measurement": "glycan array binding signal (z-score)", "setting": "[9]", "result": 0.358}, {"measurement": "glycan array binding signal (z-score)", "setting": "[10]", "result": -0.401}, {"measurement": "glycan array binding signal (z-score)", "setting": "[11]", "result": 0.357}, {"measurement": "glycan array binding signal (z-score)", "setting": "[12]", "result": 0.423}, {"measurement": "glycan array binding signal (z-score)", "setting": "Neu5Ac(a2-6)GalNAc", "result": 2.86}, {"measurement": "glycan array binding signal (z-score)", "setting": "[13]", "result": -0.517}, {"measurement": "glycan array binding signal (z-score)", "setting": "[14]", "result": -0.058}, {"measurement": "glycan array binding signal (z-score)", "setting": "[15]", "result": -0.374}, {"measurement": "glycan array binding signal (z-score)", "setting": "[16]", "result": -0.721}, {"measurement": "glycan array binding signal (z-score)", "setting": "Neu5Ac(a2-8)Neu5Ac", "result": -0.794}, {"measurement": "glycan array binding signal (z-score)", "setting": "[17]", "result": -0.936}, {"measurement": "glycan array binding signal (z-score)", "setting": "[18]", "result": -0.103}, {"measurement": "glycan array binding signal (z-score)", "setting": "[19]", "result": -0.987}, {"measurement": "glycan array binding signal (z-score)", "setting": "[20]", "result": -1.1}, {"measurement": "glycan array binding signal (z-score)", "setting": "[21]", "result": -0.632}, {"measurement": "glycan array binding signal (z-score)", "setting": "[22]", "result": -0.384}, {"measurement": "glycan array binding signal (z-score)", "setting": "[23]", "result": -0.793}, {"measurement": "glycan array binding signal (z-score)", "setting": "[24]", "result": 0.858}, {"measurement": "glycan array binding signal (z-score)", "setting": "[25]", "result": 2.88}, {"measurement": "glycan array binding signal (z-score)", "setting": "[26]", "result": -1.03}, {"measurement": "glycan array binding signal (z-score)", "setting": "[27]", "result": -0.794}, {"measurement": "glycan array binding signal (z-score)", "setting": "[28]", "result": -1}, {"measurement": "glycan array binding signal (z-score)", "setting": "[29]", "result": -0.642}, {"measurement": "glycan array binding signal (z-score)", "setting": "Neu5Ac(b2-6)GalNAc", "result": -0.75}, {"measurement": "glycan array binding signal (z-score)", "setting": "[30]", "result": 0.789}, {"measurement": "glycan array binding signal (z-score)", "setting": "[31]", "result": -0.173}, {"measurement": "glycan array binding signal (z-score)", "setting": "[32]", "result": -0.931}, {"measurement": "glycan array binding signal (z-score)", "setting": "[33]", "result": -0.558}, {"measurement": "glycan array binding signal (z-score)", "setting": "[34]", "result": 0.189}, {"measurement": "glycan array binding signal (z-score)", "setting": "Neu5Gc(a2-3)Gal(b1-4)Glc", "result": -0.47}, {"measurement": "glycan array binding signal (z-score)", "setting": "[35]", "result": -0.678}, {"measurement": "glycan array binding signal (z-score)", "setting": "[36]", "result": 0.353}, {"measurement": "glycan array binding signal (z-score)", "setting": "[37]", "result": 0.039}, {"measurement": "glycan array binding signal (z-score)", "setting": "[38]", "result": -0.428}, {"measurement": "glycan array binding signal (z-score)", "setting": "Neu5Gc(a2-6)GalNAc", "result": -0.77}, {"measurement": "glycan array binding signal (z-score)", "setting": "[39]", "result": -1.04}, {"measurement": "glycan array binding signal (z-score)", "setting": "[40]", "result": -0.65}]}]}
